PubChem BioAssay AID504786 | Drosophila RNAi Screening Center – 2011

Assay: 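Positive regulators of HIF-driven reporter output in Drosophila cells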 (primary screen)
Cell system: Drosophila S2 cells with a stable HIF luciferase reporter
Knock-down reagent: long dsRNA against Drosophila genes, about 0.2 µg dsRNA per well of a 384-well plate
Time to read-out: three days of knock-down, then 20 h of DFO before reading
Treatment: desferrioxamine (DFO) at 100 µM, an iron chelator that mimics hypoxia, for 20 h
Detection: 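HIF reporter luminescence in cells given 100 µM DFO for 20 h, using the mouse ldh-a hypoxia-response element, scored as per-plate z-scores; higher means greater loss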
Direction: z-score: higher = stronger loss of HIF reporter signal
The screen tested about 21,000 reagents; shown is a random part of those with a known target gene and a result. 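Primary screen; positive scores mean lost reporter signal, so the sign may be inverted from the usual convention.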 Names joined by + are all predicted targets of the reagent. Further read-outs or replicates are left out here.

After knock-down of CG9044 [DRSC03130] the results were z-score, replicate 1 = -0.3. Fer1HCH (Ferritin 1 heavy chain homologue) [DRSC16671] scored z-score, replicate 1 = 0.4. CG7860 [DRSC20060] scored z-score, replicate 1 = -0.4. Knock-down of CG18493 [DRSC15334] resulted in: z-score, replicate 1 = -1. Against CG13488 [DRSC04133], the entry reads z-score, replicate 1 = -0.2. Against CG34429 [DRSC10120] the deposit lists z-score, replicate 1 = -0.2.

Depletion of mRpL28 (mitochondrial ribosomal protein L28) [DRSC02724] resulted in: z-score, replicate 1 = 1.5. Silencing of CG1161 [DRSC12180] came out at: z-score, replicate 1 = 5.2. CG32507 [DRSC20421] scored z-score, replicate 1 = -0.2. Obp73a (Odorant-binding protein 73a) [DRSC09907] gave z-score, replicate 1 = -0.2. For pav (pavarotti) [DRSC08730], the values are z-score, replicate 1 = -0.2. Silencing of wmd (wing morphogenesis defect) [DRSC04436] gave: z-score, replicate 1 = -0.4.

For CG5002 [DRSC06911] the deposit lists z-score, replicate 1 = -0.2. CG11180 [DRSC06055] scored z-score, replicate 1 = -0.1. Silencing of CG30259 [DRSC04164] came out at: z-score, replicate 1 = -0.1. Depletion of CG30259 [DRSC04165] came out at: z-score, replicate 1 = -0.3. Depletion of Mi-2 + Su(Tpl) [DRSC09640] came out at: z-score, replicate 1 = -0.2.

3 entries already listed, arranged by “z-score, replicate 1”, high to low.
Fer1HCH (Ferritin 1 heavy chain homologue) [DRSC16671] → z-score, replicate 1 = 0.4
CG9044 [DRSC03130] → z-score, replicate 1 = -0.3
CG7860 [DRSC20060] → z-score, replicate 1 = -0.4

Continued:
VhaM9.7-c (Vacuolar H[+] ATPase M9.7 subunit c) [DRSC08204] scored z-score, replicate 1 = -0.2. Against CG3734 [DRSC15509] the deposit lists z-score, replicate 1 = -0.9. For CG7565 [DRSC10881], the values are z-score, replicate 1 = -0.3. With knock-down of rl (rolled) [DRSC07833], the screen gave z-score, replicate 1 = 0.2. Depletion of rl (rolled) [DRSC20742] came out at: z-score, replicate 1 = 0.2. Gp150 [DRSC04618] gave z-score, replicate 1 = -0.3.

Silencing of fsd (fates-shifted) [DRSC06166] came out at: z-score, replicate 1 = -0.4. Silencing of OstDelta (Oligosaccharide transferase Delta subunit) [DRSC06980] gave: z-score, replicate 1 = 1.3. Rtnl2 [DRSC12609] scored z-score, replicate 1 = -0.4. Knock-down of mop (myopic) [DRSC11065] came out at: z-score, replicate 1 = 0. For CG12883 [DRSC14570] the deposit lists z-score, replicate 1 = -0.5. Knock-down of brk (brinker) [DRSC18745] resulted in: z-score, replicate 1 = 0.3.

Or65a (Odorant receptor 65a) [DRSC08808] gave z-score, replicate 1 = 0.2. Silencing of Ssadh (Succinic semialdehyde dehydrogenase) [DRSC15621] came out at: z-score, replicate 1 = -0.3. Against CG13101 [DRSC02201], the values are z-score, replicate 1 = -0.3. Depletion of CG1273 [DRSC08291] came out at: z-score, replicate 1 = -0.4. After knock-down of Pgm1 (Phosphoglucose mutase 1) [DRSC10490], the screen gave z-score, replicate 1 = -0.3. After knock-down of CG13408 [DRSC13534], the screen gave z-score, replicate 1 = 0.1.

Depletion of CG13408 [DRSC14584] came out at: z-score, replicate 1 = -0.4. Against CG31224 [DRSC15272], the entry reads z-score, replicate 1 = -1. For CG31224 [DRSC16290], the entry reads z-score, replicate 1 = -0.1. CG17698 [DRSC11907] scored z-score, replicate 1 = -0.2. With knock-down of Ost48 (Oligosaccharyltransferase 48kD subunit) [DRSC18693], the screen gave z-score, replicate 1 = -0.1.
